No constants are given. Whether binding was seen depends on the method and setting. Some results given as binding are weak or reduced against the parent protein; the word gives no strength.
Target: T1, Nup85 (X. laevis (endogenous in oocytes)) (UniProt Q68FJ0)
T1 sequence: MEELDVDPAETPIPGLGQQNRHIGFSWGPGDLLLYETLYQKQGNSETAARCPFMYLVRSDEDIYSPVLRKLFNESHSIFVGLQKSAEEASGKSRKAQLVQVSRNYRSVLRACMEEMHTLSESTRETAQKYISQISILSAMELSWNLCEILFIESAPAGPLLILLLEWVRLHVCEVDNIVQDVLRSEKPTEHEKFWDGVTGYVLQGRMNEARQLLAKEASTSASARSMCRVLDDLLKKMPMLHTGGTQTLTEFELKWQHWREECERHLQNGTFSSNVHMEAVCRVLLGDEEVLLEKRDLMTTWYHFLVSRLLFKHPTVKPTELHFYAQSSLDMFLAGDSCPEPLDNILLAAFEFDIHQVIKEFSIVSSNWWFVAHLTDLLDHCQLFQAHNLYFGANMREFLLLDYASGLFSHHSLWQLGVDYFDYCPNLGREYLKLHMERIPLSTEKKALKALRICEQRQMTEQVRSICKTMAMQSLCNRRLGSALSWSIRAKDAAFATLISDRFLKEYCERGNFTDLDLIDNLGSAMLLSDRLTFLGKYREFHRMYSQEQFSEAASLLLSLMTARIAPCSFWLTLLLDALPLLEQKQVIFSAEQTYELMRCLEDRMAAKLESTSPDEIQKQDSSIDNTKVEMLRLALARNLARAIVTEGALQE
Test: cryo-EM structure

By UniProt entry, the sequences of proteins in these tests, tags left out.
UniProt Q5U249: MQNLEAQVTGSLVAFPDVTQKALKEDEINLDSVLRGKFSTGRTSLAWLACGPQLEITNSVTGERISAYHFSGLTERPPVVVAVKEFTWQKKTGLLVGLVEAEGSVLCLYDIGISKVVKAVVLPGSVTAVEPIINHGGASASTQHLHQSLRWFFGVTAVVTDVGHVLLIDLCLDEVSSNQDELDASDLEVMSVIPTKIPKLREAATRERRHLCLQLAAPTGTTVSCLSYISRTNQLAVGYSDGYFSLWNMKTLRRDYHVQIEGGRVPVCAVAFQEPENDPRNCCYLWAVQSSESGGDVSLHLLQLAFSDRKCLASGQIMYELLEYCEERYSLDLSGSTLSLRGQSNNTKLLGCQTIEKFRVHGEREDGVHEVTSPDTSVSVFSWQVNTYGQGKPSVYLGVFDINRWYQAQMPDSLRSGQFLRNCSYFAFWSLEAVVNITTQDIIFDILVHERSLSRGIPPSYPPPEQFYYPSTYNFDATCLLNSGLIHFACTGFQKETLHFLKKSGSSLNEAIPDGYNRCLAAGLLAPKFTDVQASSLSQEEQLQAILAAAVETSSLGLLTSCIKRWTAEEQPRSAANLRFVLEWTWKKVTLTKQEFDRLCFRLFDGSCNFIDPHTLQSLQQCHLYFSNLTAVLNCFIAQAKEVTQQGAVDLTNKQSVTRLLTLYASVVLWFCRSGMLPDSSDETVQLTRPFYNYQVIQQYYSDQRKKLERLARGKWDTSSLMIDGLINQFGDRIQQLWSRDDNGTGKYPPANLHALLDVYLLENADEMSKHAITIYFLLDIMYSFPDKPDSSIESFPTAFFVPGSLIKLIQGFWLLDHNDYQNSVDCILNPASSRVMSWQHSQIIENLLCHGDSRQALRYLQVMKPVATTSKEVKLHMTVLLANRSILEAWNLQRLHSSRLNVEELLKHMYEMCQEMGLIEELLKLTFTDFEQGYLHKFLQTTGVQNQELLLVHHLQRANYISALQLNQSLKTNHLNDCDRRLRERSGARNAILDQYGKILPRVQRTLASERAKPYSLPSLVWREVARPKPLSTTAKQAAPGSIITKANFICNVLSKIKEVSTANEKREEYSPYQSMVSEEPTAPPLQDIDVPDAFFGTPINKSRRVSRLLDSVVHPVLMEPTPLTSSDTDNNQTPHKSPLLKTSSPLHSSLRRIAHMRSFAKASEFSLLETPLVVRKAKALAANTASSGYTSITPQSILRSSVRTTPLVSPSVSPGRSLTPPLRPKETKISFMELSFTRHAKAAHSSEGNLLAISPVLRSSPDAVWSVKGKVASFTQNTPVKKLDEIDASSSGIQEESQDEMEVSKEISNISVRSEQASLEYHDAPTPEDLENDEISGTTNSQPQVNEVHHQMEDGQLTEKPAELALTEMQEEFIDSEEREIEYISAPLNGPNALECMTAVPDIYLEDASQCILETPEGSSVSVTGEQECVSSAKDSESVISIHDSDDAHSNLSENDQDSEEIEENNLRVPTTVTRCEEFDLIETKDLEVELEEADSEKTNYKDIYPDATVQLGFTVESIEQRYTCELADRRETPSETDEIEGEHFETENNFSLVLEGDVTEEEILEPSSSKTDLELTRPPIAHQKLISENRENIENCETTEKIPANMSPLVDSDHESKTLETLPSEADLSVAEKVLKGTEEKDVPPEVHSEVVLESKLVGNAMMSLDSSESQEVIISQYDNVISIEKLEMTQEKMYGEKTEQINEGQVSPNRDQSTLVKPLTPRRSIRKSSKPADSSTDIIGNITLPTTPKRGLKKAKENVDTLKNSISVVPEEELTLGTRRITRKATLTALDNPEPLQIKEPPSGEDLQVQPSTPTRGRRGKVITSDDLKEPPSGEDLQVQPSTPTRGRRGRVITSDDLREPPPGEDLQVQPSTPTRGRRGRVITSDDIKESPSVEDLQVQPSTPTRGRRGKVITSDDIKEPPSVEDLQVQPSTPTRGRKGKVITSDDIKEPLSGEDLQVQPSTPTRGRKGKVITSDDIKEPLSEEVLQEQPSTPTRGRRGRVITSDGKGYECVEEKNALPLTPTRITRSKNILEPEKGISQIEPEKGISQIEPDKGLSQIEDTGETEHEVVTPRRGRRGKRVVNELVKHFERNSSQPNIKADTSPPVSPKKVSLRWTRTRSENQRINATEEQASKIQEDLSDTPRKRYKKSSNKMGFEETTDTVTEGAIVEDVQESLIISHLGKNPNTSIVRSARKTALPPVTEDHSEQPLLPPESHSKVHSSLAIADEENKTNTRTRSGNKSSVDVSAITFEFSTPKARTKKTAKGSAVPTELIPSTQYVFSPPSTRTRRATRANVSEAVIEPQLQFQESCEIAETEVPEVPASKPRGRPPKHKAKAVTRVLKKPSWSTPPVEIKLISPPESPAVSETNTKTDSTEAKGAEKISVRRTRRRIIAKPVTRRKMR

ELYS (embryonic large molecule derived from the yolk sac) (from UniProt Q5U249 1-2408)
binding: binds

Reference: paper doi:10.1101/2021.11.10.468008
